Values from PubChem BioAssay AID1224828 (NIAID, 2016).
Purpose: 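Regulators linking TLR4 signalling to p65 nuclear translocation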 (primary screen). Cell system: mouse RAW264.7 G9 macrophage reporter cells (GFP-p65, Tnf promoter-mCherry). Reagents: siRNA pool against mouse genes, 100 nM. Duration: 2 days siRNA transfection, then 40 min LPS before fixation. Challenge: LPS (Salmonella minnesota R595) at 10 ng/ml. Measurement: 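Microscopy ratio of nuclear to perinuclear-ring GFP-p65 signal, scaled to the plate median; gene score is the average of two replicate robust z-scores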. Direction: p65 translocation robust z-score: higher = more nuclear NF-kappaB p65 after LPS than the plate median; nuclear/cytoplasmic p65 ratio: higher = more nuclear NF-kappaB p65. Rule for the call: 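Called active when z exceeds 3.3 or falls under -1.56 (median of Tlr4 controls), giving activity score of at least 50; no calls for control wells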. Calls: active = hit (p65 shift raised or lowered); inactive = no clear change.
The whole screen tested about 17,000 reagents; this is a part drawn at random. 762 of them (4.5%) were called active. 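Active calls include both raised and lowered p65 entry, mostly lowered; wells with fewer than 50 cells lack a z-score.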 Raw values are not corrected between plates. The numbers tell different reagents against one gene apart.

no.	gene symbol	reagent no.	p65 translocation robust z-score	nuclear/cytoplasmic p65 ratio, rep 1	nuclear/cytoplasmic p65 ratio, rep 2	low cell count flag	activity call
1	Dtx2	1	-1.2	1.32	1.22	enough cells to score	inactive
2	Limd2	1	1.52	1.72	1.68	enough cells to score	inactive
3	Elp3	1	2.17	1.64	1.74	enough cells to score	inactive
4	Chsy3	1		1.7	1.13	fewer than 50 cells per well; well left out of scoring	inactive
5	Wipf2	1	-1.9	1.14	1.32	enough cells to score	active
6	Col11a2	1	0.08	1.5	1.37	enough cells to score	inactive
7	Crebrf	1		1.52	1.56	fewer than 50 cells per well; well left out of scoring	inactive
8	Gnl3	1	1.25	1.87	1.89	enough cells to score	inactive
9	C1ql1	1	0.69	1.51	1.64	enough cells to score	inactive

Copied from the entries so far (2 entries):
no.	gene symbol	reagent no.	p65 translocation robust z-score	nuclear/cytoplasmic p65 ratio, rep 1	nuclear/cytoplasmic p65 ratio, rep 2	low cell count flag	activity call
3	Elp3	1	2.17	1.64	1.74	enough cells to score	inactive
4	Chsy3	1		1.7	1.13	fewer than 50 cells per well; well left out of scoring	inactive

More reagents:
no.	gene symbol	reagent no.	p65 translocation robust z-score	nuclear/cytoplasmic p65 ratio, rep 1	nuclear/cytoplasmic p65 ratio, rep 2	low cell count flag	activity call
10	Kctd3	1	1.32	1.84	1.51	enough cells to score	inactive
11	Ndrg1	1	-0.66	1.35	1.27	enough cells to score	inactive
12	Ndrg1	2	-1.39	1.61	1.34	enough cells to score	inactive
13	Rnf152	1	1.76	1.67	1.71	enough cells to score	inactive
14	Or2aa1	1		1.17	1.03	fewer than 50 cells per well; well left out of scoring	inactive
15	Msh5	1	1	1.65	1.4	enough cells to score	inactive
16	Ttf2	1	-1.32	1.37	1.28	enough cells to score	inactive
17	Hint3	1	0.51	1.56	1.56	enough cells to score	inactive
18	Herc1	1	0.09	1.49	1.35	enough cells to score	inactive
19	3110070M22Rik	1		1.12	1.13	fewer than 50 cells per well; well left out of scoring	inactive
20	Mcmdc2	1	0.4	1.4	1.53	enough cells to score	inactive
21	Abcc8	1	-1.3	1.47	1.42	enough cells to score	inactive
22	Abcc8	2	-0.38	1.44	1.57	enough cells to score	inactive
23	Pias3	1	-0.41	1.42	1.38	enough cells to score	inactive
24	Pou2f2	1	-0.86	1.24	1.14	enough cells to score	inactive
